# PubChem BioAssay AID1259405 | NCATS, 2018
# Purpose: 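Mouse-designed siRNAs used to find CHO productivity engineering targets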 (primary screen)
# Cell system: Chinese hamster CHO-K1 ovary cells with stable secreted eGFP expression
# Reagents: single siRNA against mouse genes, 0.8 pmol siRNA per well (2 µl of 400 nM stock)
# Timing: 3 days
# Detection: 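Per-well intracellular GFP measured by laser scanning cytometry, plus viability from ATP luminescence, each relative to plate median of non-targeting control wells, in %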
# Reading the numbers: GFP, % of control: higher = more GFP per well, higher productivity; viability (ATP), % of control: higher = more viable cells (more ATP)
# Call rule: 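Called active when intracellular GFP, relative to negative control, is at or above 120%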
# This is one part, drawn at random, of about 50,000 reagents. About 4,000 of all reagents (8%) were called active. 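Mouse siRNA library applied to hamster cells; one well for each siRNA.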 Entries without a mark were called inactive. Reagents against one gene are numbered here.
gene,reagent,"GFP, % of control","viability (ATP), % of control"
Ccdc71l,1,77,83.1
Ccdc71l,2,79,59.5
Ccdc71l,3,102,95.8
Tma16,1,46,49.3
Tma16,2,67,78.2
Tma16,3,84.1,83.8
Ifna5,1,35.7,34.3
Ifna5,2,71,70.5
Ifna5,3,84.1,58.7
BC016548,1,69,61.3
BC016548,2,56,105
BC016548,3,105,98.7
Zfp87,1,77.7,70.8
Zfp87,2,84.9,98.9
Zfp87,3,88.7,71.2
Tcf7l1,1,89.1,91.2
Tcf7l1,2,82.9,89.9
Tmem215,1,62.3,58.9
Tmem215,2,83.6,73.8
Tmem215,3,64.8,75.3
Zfp593,1,112,142
Zfp593,2,84,97.4
Zfp593,3,61.2,44.4
Tbcel,1,137 (active),95.1
Tbcel,2,116,94.1
Tbcel,3,53.7,65.3
Haspin,1,26.2,23.3
Haspin,2,59.1,72
Dbx2,1,82.1,76.5
Dbx2,2,88.5,66.1
Dbx2,3,86.1,101
Prkx,1,48.6,59.6
Akr1b1,1,68.5,34.9
Akr1b1,2,97.1,70.4
Akr1b1,3,77.5,50.5
Rpl37,1,69.4,55.2
Rpl37,2,87.4,40
Rpl37,3,87.8,63.2
Ccdc162,1,66.1,52.5
Ccdc162,2,80.5,85.8
Ccdc162,3,99.9,101
Lrp10,1,86.8,84.6
Lrp10,2,95.3,68.1
Lrp10,3,89.9,68.8
Abcb9,1,50.9,54.5
Abcb9,2,77.9,89.2
Abcb9,3,78.8,88.5
Jam3,1,102,69.2
Jam3,2,47.3,66.6
Jam3,3,86.9,102
Slc1a5,1,70,47.7
Slc1a5,2,89.8,77.2
Slc1a5,3,96.5,79
Zfp607b,1,36.8,44
Zfp607b,2,105,80.4
Zfp607b,3,76.7,92.3
Or13j1,1,67.5,35.7
Or13j1,2,131 (active),75.7
Or13j1,3,47.1,50.1
